Experimental findings from US20040157296A1 (HESKA, published 2004) are described below.

This test concerns the target T1, canine B7-1 protein expressed on L-pCMV-nCaB7-11385 recombinant L cells (PCaB7-1304) (canine).
T1 sequence: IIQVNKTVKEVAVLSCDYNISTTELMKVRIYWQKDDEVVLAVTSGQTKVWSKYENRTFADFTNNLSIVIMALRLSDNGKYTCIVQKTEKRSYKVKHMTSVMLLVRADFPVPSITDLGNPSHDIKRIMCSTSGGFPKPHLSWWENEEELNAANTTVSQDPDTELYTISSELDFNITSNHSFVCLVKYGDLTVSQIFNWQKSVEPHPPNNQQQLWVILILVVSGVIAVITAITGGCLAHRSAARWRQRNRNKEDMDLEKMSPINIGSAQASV
The test can be described thus: flow cytometry on L cell transfectants.

No constants are given. Whether binding was seen depends on the method and setting. Some entries that bind do so weakly or less than the wild type.

B1: Recombinant canine CTLA4 protein produced in Pichia (extracellular domain of the mature canine CTLA4 protein) (receptor)
chain: GMHVAQPAVVLASSRGVASFVCEYGSSGNAAEVRVTVLRQAGSQMTEVCAATYTVEDELAFLDDSTCTGTSSGNKVNLTIQGLRAMDTGLYICKVELMYPPPYYVGMGNGTQIYVIDPEPCPDSD
Turning to B1, the binding result was “binds”.
